From the supplement of paper PMC7661543
± gives the standard deviation of the averaged measurements. The effect of the compound repeats well; differences between the knockouts mostly do not.

System: MDA-MB-231
Assay: relative cell number vs DMSO control (72 h) (% of DMSO); higher = less growth inhibition (more cells)
Experimental: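 QMAP-Seq: a pool of 5 breast cancer cell lines (ZR-75-1, SKBR3, HCC-38, MDA-MB-231, BT-20), each carrying 12 doxycycline-inducible Cas9 sgRNA perturbations (11 knockouts plus non-targeting sgNT), was treated with compounds for 72 h at four 10-fold doses (10 nM-10 uM or 1 nM-1 uM range). Barcodes were amplified and sequenced, and cell number was interpolated from 293T spike-in standard curves. The result is expressed as % of the median of DMSO wells. Two biological replicates.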

[1] = sgRNA knockout: sgATF3, 1000 nM
[2] = sgRNA knockout: sgATF3, 10000 nM
[3] = sgRNA knockout: sgATF4, 1000 nM
[4] = sgRNA knockout: sgATF4, 10000 nM
[5] = sgRNA knockout: sgATF6, 1000 nM
[6] = sgRNA knockout: sgATF6, 10000 nM
[7] = sgRNA knockout: sgATG7, 1000 nM
[8] = sgRNA knockout: sgATG7, 10000 nM
[9] = sgRNA knockout: sgERN1, 1000 nM
[10] = sgRNA knockout: sgERN1, 10000 nM
[11] = sgRNA knockout: sgHSF1, 1000 nM
[12] = sgRNA knockout: sgHSF1, 10000 nM
[13] = sgRNA knockout: sgHSF2, 1000 nM
[14] = sgRNA knockout: sgHSF2, 10000 nM
[15] = sgRNA knockout: sgKEAP1, 100 nM
[16] = sgRNA knockout: sgKEAP1, 1000 nM
[17] = sgRNA knockout: sgKEAP1, 10000 nM
[18] = sgRNA knockout: sgNFE2L2, 10 nM
[19] = sgRNA knockout: sgNFE2L2, 100 nM
[20] = sgRNA knockout: sgNFE2L2, 1000 nM
[21] = sgRNA knockout: sgNFE2L2, 10000 nM
[22] = sgRNA knockout: sgSLC35F2, 10 nM
[23] = sgRNA knockout: sgSLC35F2, 100 nM
[24] = sgRNA knockout: sgSLC35F2, 1000 nM
[25] = sgRNA knockout: sgSLC35F2, 10000 nM
[26] = sgRNA knockout: sgXBP1, 1000 nM
[27] = sgRNA knockout: sgXBP1, 10000 nM

With `CC(C)(C#N)c1ccc(N2C(=O)OCc3cnc4ccc(-c5cnc6ccccc6c5)cc4c32)cc1` the relative cell number (sgRNA knockout: sgATF3, 10 nM) was 99.87 ± 0.7, the relative cell number (sgRNA knockout: sgATF3, 100 nM) was 94.7 ± 4.9 and the relative cell number [1] was 83.3 ± 17. It also gave a relative cell number [2] of 56 ± 1.4, a relative cell number (sgRNA knockout: sgATF4, 10 nM) of 97.9 ± 4 and a relative cell number (sgRNA knockout: sgATF4, 100 nM) of 121 ± 26. It also gave a relative cell number [3] of 82.6 ± 21, a relative cell number [4] of 73.9 ± 25 and a relative cell number (sgRNA knockout: sgATF6, 10 nM) of 127 ± 25. For the same molecule, the relative cell number (sgRNA knockout: sgATF6, 100 nM) was 85 ± 2.9, the relative cell number [5] was 76.5 ± 22 and the relative cell number [6] was 46.6 ± 15. The relative cell number (sgRNA knockout: sgATG7, 10 nM) was 90 ± 13, the relative cell number (sgRNA knockout: sgATG7, 100 nM) was 107 ± 3.5 and the relative cell number [7] was 103 ± 32. The relative cell number [8] was 61.43 ± 0.33, the relative cell number (sgRNA knockout: sgERN1, 10 nM) was 111 ± 2.5 and the relative cell number (sgRNA knockout: sgERN1, 100 nM) was 80.5 ± 26. The relative cell number [9] was 91 ± 9.8, the relative cell number [10] was 68 ± 6.5 and the relative cell number (sgRNA knockout: sgHSF1, 10 nM) was 98.3 ± 27. For the same molecule, the relative cell number (sgRNA knockout: sgHSF1, 100 nM) was 98.9 ± 28, the relative cell number [11] was 80.3 ± 13 and the relative cell number [12] was 59.9 ± 6.7. The relative cell number (sgRNA knockout: sgHSF2, 10 nM) was 101 ± 33, the relative cell number (sgRNA knockout: sgHSF2, 100 nM) was 98.6 ± 11 and the relative cell number [13] was 95.8 ± 23. It also gave a relative cell number [14] of 59.8 ± 12, a relative cell number (sgRNA knockout: sgKEAP1, 10 nM) of 117.4 ± 0.35 and a relative cell number [15] of 96.9 ± 0.98. The relative cell number [16] was 84 ± 2.8, the relative cell number [17] was 50.8 ± 4.2 and the relative cell number [18] was 102 ± 16. For the same molecule, the relative cell number [19] was 90.6 ± 7, the relative cell number [20] was 91.8 ± 12 and the relative cell number [21] was 59.2 ± 21. For the same molecule, the relative cell number [22] was 94.3 ± 13, the relative cell number [23] was 92.6 ± 13 and the relative cell number [24] was 68.1 ± 13. It also gave a relative cell number [25] of 66.2 ± 6, a relative cell number (sgRNA knockout: sgXBP1, 10 nM) of 82.93 ± 0.2 and a relative cell number (sgRNA knockout: sgXBP1, 100 nM) of 74.7 ± 1. For the same molecule, the relative cell number [26] was 89.8 ± 3.9 and the relative cell number [27] was 63.8 ± 6.8.

`COc1cc2nc(N3CCCN(C)CC3)nc(NC3CCN(Cc4ccccc4)CC3)c2cc1OC` showed a relative cell number (sgRNA knockout: sgATF3, 10 nM) of 108 ± 16, a relative cell number (sgRNA knockout: sgATF3, 100 nM) of 93.6 ± 5.2 and a relative cell number [1] of 100 ± 3.6. The relative cell number [2] was 4.93 ± 2.6, the relative cell number (sgRNA knockout: sgATF4, 10 nM) was 72.5 ± 12 and the relative cell number (sgRNA knockout: sgATF4, 100 nM) was 119 ± 5. For the same molecule, the relative cell number [3] was 94.4 ± 44, the relative cell number [4] was 6.06 ± 5.3 and the relative cell number (sgRNA knockout: sgATF6, 10 nM) was 89 ± 1.6. For the same molecule, the relative cell number (sgRNA knockout: sgATF6, 100 nM) was 106 ± 14, the relative cell number [5] was 87.5 ± 4.2 and the relative cell number [6] was 6.03 ± 5.5. The relative cell number (sgRNA knockout: sgATG7, 10 nM) was 84.1 ± 9.8, the relative cell number (sgRNA knockout: sgATG7, 100 nM) was 111 ± 19 and the relative cell number [7] was 67.92 ± 0.66. For the same molecule, the relative cell number [8] was 5.51 ± 3.5, the relative cell number (sgRNA knockout: sgERN1, 10 nM) was 110 ± 12 and the relative cell number (sgRNA knockout: sgERN1, 100 nM) was 104 ± 22. For the same molecule, the relative cell number [9] was 90.08 ± 0.35, the relative cell number [10] was 4.84 ± 0.7 and the relative cell number (sgRNA knockout: sgHSF1, 10 nM) was 97.8 ± 3. For the same molecule, the relative cell number (sgRNA knockout: sgHSF1, 100 nM) was 90.5 ± 4.3, the relative cell number [11] was 98.2 ± 16 and the relative cell number [12] was 3.61 ± 0.14. For the same molecule, the relative cell number (sgRNA knockout: sgHSF2, 10 nM) was 83.9 ± 23, the relative cell number (sgRNA knockout: sgHSF2, 100 nM) was 110 ± 3.8 and the relative cell number [13] was 74.8 ± 7.2. It also gave a relative cell number [14] of 6.44 ± 7.2, a relative cell number (sgRNA knockout: sgKEAP1, 10 nM) of 105.6 ± 0.71 and a relative cell number [15] of 82.6 ± 33. For the same molecule, the relative cell number [16] was 106 ± 4, the relative cell number [17] was 3.37 ± 1.8 and the relative cell number [18] was 93.29 ± 0.66. For the same molecule, the relative cell number [19] was 105 ± 5.2, the relative cell number [20] was 72.8 ± 7.6 and the relative cell number [21] was 6.9 ± 5.7. For the same molecule, the relative cell number [22] was 85.86 ± 0.78, the relative cell number [23] was 99.2 ± 2.8 and the relative cell number [24] was 87 ± 23. For the same molecule, the relative cell number [25] was 5.72 ± 3.9, the relative cell number (sgRNA knockout: sgXBP1, 10 nM) was 92.8 ± 20 and the relative cell number (sgRNA knockout: sgXBP1, 100 nM) was 93.3 ± 12. For the same molecule, the relative cell number [26] was 73.6 ± 9.2 and the relative cell number [27] was 5.05 ± 1.5.
